# This is one part of the list. The list holds hits alone, and they repeat only in part.
# By UniProt entry, the sequences of proteins in these tests, tags left out.
# COIL, P38432, UniProt P38432, whole entry: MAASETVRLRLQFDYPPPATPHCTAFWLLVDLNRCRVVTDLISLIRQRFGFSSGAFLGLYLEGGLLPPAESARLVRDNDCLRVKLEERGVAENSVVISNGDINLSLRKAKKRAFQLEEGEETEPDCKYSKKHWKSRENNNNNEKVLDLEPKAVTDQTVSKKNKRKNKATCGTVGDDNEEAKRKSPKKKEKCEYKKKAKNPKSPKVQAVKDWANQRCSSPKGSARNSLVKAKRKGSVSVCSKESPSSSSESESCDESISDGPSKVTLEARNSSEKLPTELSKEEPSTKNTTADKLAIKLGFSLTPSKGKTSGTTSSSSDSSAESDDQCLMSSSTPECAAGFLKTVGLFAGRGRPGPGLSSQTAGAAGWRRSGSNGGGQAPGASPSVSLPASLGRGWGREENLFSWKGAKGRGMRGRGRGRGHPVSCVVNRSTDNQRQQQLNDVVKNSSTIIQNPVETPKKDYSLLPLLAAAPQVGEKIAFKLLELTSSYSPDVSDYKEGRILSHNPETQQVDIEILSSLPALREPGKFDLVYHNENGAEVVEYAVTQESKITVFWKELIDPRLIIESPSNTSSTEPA
# NDUFS6, O75380, UniProt O75380, whole entry: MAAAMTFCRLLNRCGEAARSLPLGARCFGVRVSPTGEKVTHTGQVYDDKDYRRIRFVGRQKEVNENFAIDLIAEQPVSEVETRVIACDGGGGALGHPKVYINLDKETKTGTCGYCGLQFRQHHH
# PHF3, Q92576, UniProt Q92576, whole entry: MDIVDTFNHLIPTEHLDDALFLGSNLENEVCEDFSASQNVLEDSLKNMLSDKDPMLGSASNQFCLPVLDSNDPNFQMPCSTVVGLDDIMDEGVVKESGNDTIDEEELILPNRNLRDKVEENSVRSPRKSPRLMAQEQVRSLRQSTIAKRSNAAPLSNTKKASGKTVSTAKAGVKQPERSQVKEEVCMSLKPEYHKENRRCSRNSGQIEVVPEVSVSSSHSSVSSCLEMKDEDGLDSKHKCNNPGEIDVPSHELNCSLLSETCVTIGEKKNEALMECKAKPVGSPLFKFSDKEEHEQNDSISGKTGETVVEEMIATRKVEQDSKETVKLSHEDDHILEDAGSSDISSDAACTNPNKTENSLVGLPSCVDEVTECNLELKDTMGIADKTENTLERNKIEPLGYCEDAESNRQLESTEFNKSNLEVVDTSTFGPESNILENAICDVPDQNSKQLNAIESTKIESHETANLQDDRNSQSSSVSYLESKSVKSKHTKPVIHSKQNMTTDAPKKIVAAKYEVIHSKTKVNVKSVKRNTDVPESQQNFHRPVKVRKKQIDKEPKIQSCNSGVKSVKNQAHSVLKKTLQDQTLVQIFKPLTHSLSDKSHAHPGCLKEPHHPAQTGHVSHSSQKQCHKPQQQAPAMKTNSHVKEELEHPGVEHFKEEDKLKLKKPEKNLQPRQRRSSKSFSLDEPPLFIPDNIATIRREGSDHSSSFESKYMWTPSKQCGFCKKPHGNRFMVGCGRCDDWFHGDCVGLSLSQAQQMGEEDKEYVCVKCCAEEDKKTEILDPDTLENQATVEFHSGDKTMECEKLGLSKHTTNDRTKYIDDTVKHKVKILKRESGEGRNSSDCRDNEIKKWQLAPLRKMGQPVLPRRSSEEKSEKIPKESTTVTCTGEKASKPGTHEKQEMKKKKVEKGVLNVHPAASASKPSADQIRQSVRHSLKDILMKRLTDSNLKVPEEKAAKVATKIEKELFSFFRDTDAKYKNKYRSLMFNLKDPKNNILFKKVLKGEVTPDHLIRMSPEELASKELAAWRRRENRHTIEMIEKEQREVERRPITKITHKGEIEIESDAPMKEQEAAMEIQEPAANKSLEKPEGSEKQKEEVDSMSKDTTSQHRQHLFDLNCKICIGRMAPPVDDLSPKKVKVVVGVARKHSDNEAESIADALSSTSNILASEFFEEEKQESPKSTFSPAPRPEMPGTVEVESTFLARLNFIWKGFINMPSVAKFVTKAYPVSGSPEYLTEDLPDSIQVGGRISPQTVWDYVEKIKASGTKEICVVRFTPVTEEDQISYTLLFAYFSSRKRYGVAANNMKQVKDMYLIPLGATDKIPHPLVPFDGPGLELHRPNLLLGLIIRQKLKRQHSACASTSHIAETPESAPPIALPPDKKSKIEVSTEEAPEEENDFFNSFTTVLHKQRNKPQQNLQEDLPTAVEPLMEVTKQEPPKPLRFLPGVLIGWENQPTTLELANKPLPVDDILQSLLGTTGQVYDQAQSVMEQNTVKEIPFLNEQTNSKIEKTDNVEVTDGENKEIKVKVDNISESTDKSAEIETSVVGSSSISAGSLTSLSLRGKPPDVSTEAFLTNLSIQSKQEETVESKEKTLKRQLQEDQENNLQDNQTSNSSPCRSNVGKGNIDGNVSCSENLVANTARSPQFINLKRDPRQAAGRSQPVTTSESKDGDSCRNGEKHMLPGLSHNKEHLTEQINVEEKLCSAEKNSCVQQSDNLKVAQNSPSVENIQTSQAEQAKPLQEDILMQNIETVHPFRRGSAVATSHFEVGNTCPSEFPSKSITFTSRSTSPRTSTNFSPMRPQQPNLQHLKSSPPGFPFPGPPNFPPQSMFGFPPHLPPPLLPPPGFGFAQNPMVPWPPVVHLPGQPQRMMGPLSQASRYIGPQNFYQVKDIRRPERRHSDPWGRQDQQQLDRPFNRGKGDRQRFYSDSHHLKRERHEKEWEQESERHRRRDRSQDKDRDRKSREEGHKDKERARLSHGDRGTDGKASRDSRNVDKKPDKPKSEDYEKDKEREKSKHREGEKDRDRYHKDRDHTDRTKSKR
# TUBGCP3, Q96CW5, UniProt Q96CW5, whole entry: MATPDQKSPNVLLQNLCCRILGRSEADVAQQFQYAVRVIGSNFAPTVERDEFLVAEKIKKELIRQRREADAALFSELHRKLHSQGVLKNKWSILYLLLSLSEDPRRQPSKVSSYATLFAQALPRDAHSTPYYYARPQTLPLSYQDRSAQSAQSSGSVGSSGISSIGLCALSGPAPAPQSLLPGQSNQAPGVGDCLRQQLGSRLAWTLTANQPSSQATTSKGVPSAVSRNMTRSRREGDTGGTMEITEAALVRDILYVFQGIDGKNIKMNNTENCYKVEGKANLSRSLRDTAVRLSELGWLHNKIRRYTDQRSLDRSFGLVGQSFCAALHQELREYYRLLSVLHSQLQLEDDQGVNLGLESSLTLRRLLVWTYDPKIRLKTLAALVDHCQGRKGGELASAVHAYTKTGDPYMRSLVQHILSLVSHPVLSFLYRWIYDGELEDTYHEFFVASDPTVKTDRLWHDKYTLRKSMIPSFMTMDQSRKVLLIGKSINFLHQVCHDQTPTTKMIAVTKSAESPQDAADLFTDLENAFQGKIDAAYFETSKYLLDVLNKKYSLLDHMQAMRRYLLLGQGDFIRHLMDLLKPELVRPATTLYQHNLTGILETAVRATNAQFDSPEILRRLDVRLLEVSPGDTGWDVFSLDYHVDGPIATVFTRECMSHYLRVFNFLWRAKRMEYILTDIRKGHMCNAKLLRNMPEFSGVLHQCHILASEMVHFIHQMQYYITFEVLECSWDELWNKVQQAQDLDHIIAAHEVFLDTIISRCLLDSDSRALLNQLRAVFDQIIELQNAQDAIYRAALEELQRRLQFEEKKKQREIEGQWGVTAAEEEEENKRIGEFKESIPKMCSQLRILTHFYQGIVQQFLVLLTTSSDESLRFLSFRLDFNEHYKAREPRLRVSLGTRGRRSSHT
# YBX3, P16989, UniProt P16989, whole entry: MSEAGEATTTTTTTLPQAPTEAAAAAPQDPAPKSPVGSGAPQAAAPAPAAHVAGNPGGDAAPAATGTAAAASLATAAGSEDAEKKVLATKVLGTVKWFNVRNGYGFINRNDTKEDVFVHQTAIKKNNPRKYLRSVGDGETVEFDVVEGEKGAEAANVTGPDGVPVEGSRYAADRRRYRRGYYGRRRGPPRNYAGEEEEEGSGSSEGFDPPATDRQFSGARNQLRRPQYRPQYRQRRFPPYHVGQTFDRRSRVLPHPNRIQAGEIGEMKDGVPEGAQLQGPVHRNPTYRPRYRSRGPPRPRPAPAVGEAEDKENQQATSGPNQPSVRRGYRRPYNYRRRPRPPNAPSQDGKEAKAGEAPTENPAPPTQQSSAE
# Legend:
# Experiment in all cases: PRISMA enrichment of interactor (LFQ) in peptide spot vs all other peptide spots (log2 fold change); higher = stronger / more specific binding of the interactor to the peptide
# TTC27, Q6P3X3 = biological target: TTC27, Q6P3X3
# Experimental: (§1)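 PRISMA: 15-aa overlapping tiles (offset 8 aa) of 60 microproteins, plus SOS1/GLUT1 control peptides, were spot-synthesized on cellulose membranes in triplicate. Membranes were incubated with benzonase-treated HEK293T lysate, and bound proteins were identified by LC-MS/MS with LFQ. Enrichment is the log2 fold change of each protein in one spot versus all other spots. Only interactors passing the significance cutoff are listed.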
# URB1, O60287 = biological target: URB1, O60287
# Experimental: as §1
# AKAP1, Q92667 = biological target: AKAP1, Q92667
# Experimental: as §1
# ARCN1, P48444 = biological target: ARCN1, P48444
# Experimental: as §1
# ARFGEF1, Q9Y6D6 = biological target: ARFGEF1, Q9Y6D6
# Experimental: as §1
# BASP1, P80723 = biological target: BASP1, P80723
# Experimental: as §1
# CDKN2AIP, Q9NXV6 = biological target: CDKN2AIP, Q9NXV6
# Experimental: as §1
# CEP290, O15078 = biological target: CEP290, O15078
# Experimental: as §1
# COIL, P38432 = biological target: COIL, P38432
# Experimental: as §1
# DDX1, Q92499 = biological target: DDX1, Q92499
# Experimental: as §1
# DFFA, O00273 = biological target: DFFA, O00273
# Experimental: as §1
# DIS3, Q9Y2L1 = biological target: DIS3, Q9Y2L1
# Experimental: as §1
# FAM207A, Q9NSI2 = biological target: FAM207A, Q9NSI2
# Experimental: as §1
# GSTK1, Q9Y2Q3 = biological target: GSTK1, Q9Y2Q3
# Experimental: as §1
# HNRNPL, P14866 = biological target: HNRNPL, P14866
# Experimental: as §1
# HNRNPUL1, Q9BUJ2 = biological target: HNRNPUL1, Q9BUJ2
# Experimental: as §1
# HTATSF1, O43719 = biological target: HTATSF1, O43719
# Experimental: as §1
# MRPL14, Q6P1L8 = biological target: MRPL14, Q6P1L8
# Experimental: as §1
# MRPL19, P49406 = biological target: MRPL19, P49406
# Experimental: as §1
# NDUFS6, O75380 = biological target: NDUFS6, O75380
# Experimental: as §1
# NOC2L, Q9Y3T9 = biological target: NOC2L, Q9Y3T9
# Experimental: as §1
# NUP133, Q8WUM0 = biological target: NUP133, Q8WUM0
# Experimental: as §1
# PACSIN2, Q9UNF0 = biological target: PACSIN2, Q9UNF0
# Experimental: as §1
# PAXBP1, Q9Y5B6 = biological target: PAXBP1, Q9Y5B6
# Experimental: as §1
# PBK, Q96KB5 = biological target: PBK, Q96KB5
# Experimental: as §1
# PHF3, Q92576 = biological target: PHF3, Q92576
# Experimental: as §1
# PLS3, P13797 = biological target: PLS3, P13797
# Experimental: as §1
# RANBP3, Q9H6Z4 = biological target: RANBP3, Q9H6Z4
# Experimental: as §1
# RBM15, Q96T37 = biological target: RBM15, Q96T37
# Experimental: as §1
# RBX1, P62877 = biological target: RBX1, P62877
# Experimental: as §1
# SCAF11, Q99590 = biological target: SCAF11, Q99590
# Experimental: as §1
# SEC24B, O95487 = biological target: SEC24B, O95487
# Experimental: as §1
# SLC25A33, Q9BSK2 = biological target: SLC25A33, Q9BSK2
# Experimental: as §1
# SPOUT1, Q5T280 = biological target: SPOUT1, Q5T280
# Experimental: as §1
# TUBGCP3, Q96CW5 = biological target: TUBGCP3, Q96CW5
# Experimental: as §1
# UBA1, P22314 = biological target: UBA1, P22314
# Experimental: as §1
# VPS52, Q8N1B4 = biological target: VPS52, Q8N1B4
# Experimental: as §1
# YBX3, P16989 = biological target: YBX3, P16989
# Experimental: as §1
# ZMYM4, Q5VZL5 = biological target: ZMYM4, Q5VZL5
# Experimental: as §1
Binder,"PRISMA enrichment of interactor (log2) (TTC27, Q6P3X3)","PRISMA enrichment of interactor (log2) (URB1, O60287)","PRISMA enrichment of interactor (log2) (AKAP1, Q92667)","PRISMA enrichment of interactor (log2) (ARCN1, P48444)","PRISMA enrichment of interactor (log2) (ARFGEF1, Q9Y6D6)","PRISMA enrichment of interactor (log2) (BASP1, P80723)","PRISMA enrichment of interactor (log2) (CDKN2AIP, Q9NXV6)","PRISMA enrichment of interactor (log2) (CEP290, O15078)","PRISMA enrichment of interactor (log2) (COIL, P38432)","PRISMA enrichment of interactor (log2) (DDX1, Q92499)","PRISMA enrichment of interactor (log2) (DFFA, O00273)","PRISMA enrichment of interactor (log2) (DIS3, Q9Y2L1)","PRISMA enrichment of interactor (log2) (FAM207A, Q9NSI2)","PRISMA enrichment of interactor (log2) (GSTK1, Q9Y2Q3)","PRISMA enrichment of interactor (log2) (HNRNPL, P14866)","PRISMA enrichment of interactor (log2) (HNRNPUL1, Q9BUJ2)","PRISMA enrichment of interactor (log2) (HTATSF1, O43719)","PRISMA enrichment of interactor (log2) (MRPL14, Q6P1L8)","PRISMA enrichment of interactor (log2) (MRPL19, P49406)","PRISMA enrichment of interactor (log2) (NDUFS6, O75380)","PRISMA enrichment of interactor (log2) (NOC2L, Q9Y3T9)","PRISMA enrichment of interactor (log2) (NUP133, Q8WUM0)","PRISMA enrichment of interactor (log2) (PACSIN2, Q9UNF0)","PRISMA enrichment of interactor (log2) (PAXBP1, Q9Y5B6)","PRISMA enrichment of interactor (log2) (PBK, Q96KB5)","PRISMA enrichment of interactor (log2) (PHF3, Q92576)","PRISMA enrichment of interactor (log2) (PLS3, P13797)","PRISMA enrichment of interactor (log2) (RANBP3, Q9H6Z4)","PRISMA enrichment of interactor (log2) (RBM15, Q96T37)","PRISMA enrichment of interactor (log2) (RBX1, P62877)","PRISMA enrichment of interactor (log2) (SCAF11, Q99590)","PRISMA enrichment of interactor (log2) (SEC24B, O95487)","PRISMA enrichment of interactor (log2) (SLC25A33, Q9BSK2)","PRISMA enrichment of interactor (log2) (SPOUT1, Q5T280)","PRISMA enrichment of interactor (log2) (TUBGCP3, Q96CW5)","PRISMA enrichment of interactor (log2) (UBA1, P22314)","PRISMA enrichment of interactor (log2) (VPS52, Q8N1B4)","PRISMA enrichment of interactor (log2) (YBX3, P16989)","PRISMA enrichment of interactor (log2) (ZMYM4, Q5VZL5)"
HSWVTLVIHSGGDLT [LINC01128],4.27,6.05,–,–,–,–,–,–,–,–,–,–,–,–,–,–,–,–,–,–,–,–,–,–,–,–,–,–,–,–,–,–,–,–,–,–,–,–,–
ELPDYRQWKIEGTPL [NDUFB3],–,–,5.48,6.09,4.35,4.17,4.72,5.69,6.19,7.25,4.28,14.1,7.22,6.94,4.64,4.3,5.54,4.42,5.46,4.54,5,5.36,4.97,4.78,4.47,7.82,8.29,5.2,4.54,4.14,4.13,4.39,5.9,7.15,4.31,5.15,7.78,5.38,6

# From the supplement of paper PMC10032668
